Experimental data: paper PMC12217462, “A propidium iodide-based in vitro screen of the “Bug Box” against Babesia duncani reveals potent inhibitors” (Antimicrobial Agents and Chemotherapy, 2025)

Test system: Babesia duncani
Test: Propidium iodide-based in vitro dose-response assay, B. duncani-infected red blood cells, 384-well plates
Assay type: cell-based
Details: Erythrocyte, Table 1, two replicate 9-point dilution experiments, combined data
Description: Frozen stocks of B. duncani were provided by the Ben Mamoun lab at Yale University. Culture maintenance was undertaken as described by Singh et al^18 with the following adaptations: Media, completed DMEM/F12 (cDMEM; 20% heat-inactivated fetal bovine serum (Sigma-Aldrich catalogue #12,306 C-500ML), 1 x HT media supplement (Sigma-Aldrich catalogue # H0137-10VL), 1 x L-glutamine (Gibco, catalogue # 25030–081), 1 x antibiotic-antimycotic (Gibco catalogue #15240–062), and 1 x gentamicin (Gibco catalogue #15710–072)), was changed every other day and cultures were kept in a modular incubator gassed with 2% O2, 5% CO2, 93% N2 at 37°C. […] One day before the start, the media was changed, and parasitemia was assessed by light microscopy examination of Giemsa-stained thin blood smears with a minimum of 500 red blood cells counted.
Fresh A + blood was washed three times, and a stock 10% hematocrit (HCT) solution of uninfected red cells in completed F12/DMEM media (cDMEM) was created. […] After 24 hours, the plate was read using a Synergy H1 (BioTek, Winooski, VT) with excitation = 535 nm, emission = 615 nm, sensitivity = 150, and readings taken from the bottom of the wells. Blood smears were made from select undiluted starting wells and stained with Giemsa, and parasitemia was calculated manually from a minimum of 1,000 counted red blood cells. […]

SMILES: O=C(CCCCCCC(=O)Nc1ccccc1)NO [Vorinostat]
- EC50: 1100 nM
